Results published in PubChem BioAssay AID1259354 (Paczesny and Yang Labs, IUPUI and University of Michigan, 2018).
The whole screen tested about 78,000 compounds, of which about 1,800 (2.3%) were called active. The shares of active, inactive and inconclusive entries below differ from those in the screen. Cut-off read from the data, not from the text of the source: active = inhibition above about 30%; inconclusive = mostly about 10% to 28%; inactive = weaker than that.

By UniProt entry, the sequences of proteins in these tests, tags left out. Where a name states a change or a piece, a line headed by the entry shows the natural chain unless it says otherwise.
UniProt Q01638: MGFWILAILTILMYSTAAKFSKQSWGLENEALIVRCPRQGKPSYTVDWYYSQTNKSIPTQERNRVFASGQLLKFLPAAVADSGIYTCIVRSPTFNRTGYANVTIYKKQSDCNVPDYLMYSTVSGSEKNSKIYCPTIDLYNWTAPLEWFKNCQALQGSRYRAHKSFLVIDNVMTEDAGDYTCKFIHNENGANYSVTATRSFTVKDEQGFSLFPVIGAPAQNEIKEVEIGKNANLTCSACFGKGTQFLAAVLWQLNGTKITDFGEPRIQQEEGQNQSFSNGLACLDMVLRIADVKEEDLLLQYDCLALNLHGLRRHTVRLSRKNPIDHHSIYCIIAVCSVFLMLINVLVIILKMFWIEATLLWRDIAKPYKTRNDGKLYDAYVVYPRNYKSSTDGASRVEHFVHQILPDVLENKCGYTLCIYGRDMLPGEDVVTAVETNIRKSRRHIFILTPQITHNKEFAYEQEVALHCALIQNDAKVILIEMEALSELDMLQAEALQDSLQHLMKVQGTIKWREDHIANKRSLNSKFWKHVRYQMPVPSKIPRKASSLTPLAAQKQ

biological target: Interleukin-1 receptor-like 1 (Homo sapiens) (UniProt Q01638); test: blocks human ST2 binding to IL-33, primary screen, biochemical, AlphaLISA (AID 1259354); conditions: AlphaLISA ST2-Fc/biotin-IL-33 interaction, 1 h; at 17 µM, hits give high values

SMILES | inhibition
Cc1ccc2nsnc2c1S(=O)(=O)NCc1cccnc1 | inconclusive: 10%
O=C(c1ccc(C(=O)N2CCc3ccccc32)cc1)N1CCc2ccccc21 | inactive
CC(=O)N1/C(=C/c2ccncc2)C(=O)c2ccccc21 | active: 39%
COc1cc2c(CCNC(C)=O)c[nH]c2cc1O | inconclusive: 15%
Cc1cc(NC(=NS(=O)(=O)c2ccccc2)c2ccccc2)ccc1O | inactive
CC1CCCC(C)N1CC(O)COc1ccc(Br)cc1 (stereo unspecified) | inactive
CSc1nc2c(c(=O)[nH]1)C1(CCCC1)Cc1ccccc1-2 | inconclusive: 13%
Oc1ccccc1C(O)(c1ccccc1)c1ccccc1 | inactive
COc1ccccc1Cn1c(CNS(=O)(=O)c2ccc(F)c(Cl)c2)nc2cccnc21 | inconclusive: 17%
O=C(c1ccccc1-c1ncn[nH]1)N1CC(c2cccnc2)C1 | inconclusive: 11%
CNCC(=O)N1CC(Oc2cccc(C)c2)C1 | inconclusive: 12%
O=C(CN1CCN(Cc2ccc(F)cc2Cl)C1=O)NC1CCCCCCC1 | inactive
CC(C)NC(=O)NC[C@H]1O[C@@H](CO)[C@@H](O)[C@H]1N1CCN(c2ccccn2)CC1 | inconclusive: 19%
CCc1cc(CN(C)Cc2ccc(C(C)=O)cc2)on1 | inconclusive: 11%
CCc1cccc(CC)c1NC(=O)CN1C(=O)C2C3CCC(C3)C2C1=O (stereo unspecified) | inactive
CCOC(=O)c1[nH]c2ccc(OC)cc2c1NC(=O)CNc1nc(C)c(C)s1 | inconclusive: 10%
COc1ccc(-c2cn3ccsc3n2)cc1 | inconclusive: 18%
COc1ccc(NC(=O)c2cc(C)on2)c(OC)c1 | inconclusive: 17%
CN(C)CCN(C)[C@@H]1[C@H](O)[C@H](CO)O[C@@H]1CNC(=O)Nc1ccccc1 | inconclusive: 21%
COc1ccc(/C=C(\C#N)c2nc(-c3cccc([N+](=O)[O-])c3)cs2)cc1O | active: 35%
c1cn(-c2ccc3cc[nH]c3c2)cn1 | inconclusive: 10%
COC(=O)c1cc2n(n1)CCCN(C(=O)C(=O)c1cccnc1)C2 | inconclusive: 16%
CC(=O)N(c1ccc(Cl)cc1)c1nc(C)cc(C)c1C#N | inconclusive: 11%
Cc1oc(-c2cccc(Cl)c2)nc1CN1CCN(CC2CCCO2)CC1 (stereo unspecified) | inconclusive: 19%

SMILES | inhibition
CCCCC(=O)NCc1ccc(C)cc1 | inconclusive: 17%
CN(C)CCN(C)[C@@H]1[C@H](O)[C@H](CO)O[C@@H]1CNC(=O)c1ccccc1 | inconclusive: 15%
O=c1c2ccccc2nnn1Cc1nc(Cc2ccccc2)n[nH]1 | inconclusive: 11%
Cc1ccc(CN2CCC(CN(C)Cc3cn[nH]c3-c3cccc(F)c3)CC2)o1 | inconclusive: 12%
CS(=O)(=O)NC1CCN(c2nccc(CCC(F)(F)F)n2)CC1 | inactive
O=C(CS(=O)(=O)c1cn(Cc2ccccc2Cl)c2ccccc12)N1CCCCCC1 | inactive
O=C(O)c1cccc(Nc2nc(-c3cccs3)cs2)c1 | inactive
O=C(CC1C(=O)NCCN1Cc1ccccc1C(F)(F)F)NCc1ccon1 (stereo unspecified) | inactive
CCOC(=O)c1cc(C)nc(N2CCc3[nH]nc(-c4cccc(F)c4)c3C2)n1 | inactive
Cc1ccc(C(=O)c2c[nH]c3ccc(Cl)cc3c2=O)cc1 | inconclusive: 13%
COc1ccc(S(=O)(=O)N(CC(=O)Nc2cccc(F)c2)Cc2ccccc2)cc1 | inactive
COc1cc(/C=C(\C#N)c2[nH]nc(N)c2C#N)ccc1OCc1ccccc1 | inconclusive: 25%
O=C(NCc1ccccn1)C1CC(=O)N(CCc2ccccc2)C1 (stereo unspecified) | inactive
Cc1ccccc1NCC(=O)c1ccc([N+](=O)[O-])cc1 | active: 48%
O=C(C1CC1)N1CCc2cc(S(=O)(=O)NCc3cccs3)ccc21 | inconclusive: 16%
S=C(Nc1ccc(Cl)cc1)N[C@H]1CO[C@H]2[C@@H]1OC[C@H]2OCc1ccccc1 | inactive
COc1cc(NC(=O)c2ccc(Cl)cc2[N+](=O)[O-])c(OC)cc1Cl | inactive
O=C(NCc1ccc(F)cc1)c1ccc(NC(=O)C2CCCO2)cc1 (stereo unspecified) | inconclusive: 19%
Cc1cnc(C)c(-c2cccc(OC(C)C)c2)n1 | inconclusive: 11%
N#Cc1sc2nc3c(cc2c1N)CCCC3 | inconclusive: 17%
COc1cc(C2Oc3ccccc3C3CC(c4cccs4)=NN32)cc(OC)c1O (stereo unspecified) | inconclusive: 19%
O=C(N[C@H]1CCN2C(=O)N(c3cccc(C(F)(F)F)c3)C(=O)[C@@H]2C1)c1cnccn1 | inconclusive: 24%
COc1ccc2cc(C(=O)NC(C)=O)c(=Nc3ccccc3F)oc2c1 | inconclusive: 27%
CSc1ccc(/C=C2\C(=O)Nc3ccc(Br)cc32)cc1 | inconclusive: 20%

SMILES | inhibition
O=C(CCS(=O)(=O)c1cccs1)Nc1ccc(F)c(F)c1 | inactive
O=C(Nc1ccc([N+](=O)[O-])cc1Cl)C(c1ccccc1)c1ccccc1 | inconclusive: 28%
COc1cccc2cc(C(=O)Nc3ccccc3)c(=Nc3cccc(F)c3)oc12 | inconclusive: 20%
COCCCN1C(=O)N(Cc2ccccn2)C(=O)C12CCN(Cc1cn(C)c3ccccc13)CC2 | inconclusive: 19%
Cc1ccc2c(c1)sc(=NC(=O)c1ccc(S(=O)(=O)N(C)C)cc1)n2C | inconclusive: 22%
Cc1ccc(-c2csc(/C(C#N)=C/c3cccs3)n2)cc1 | active: 64%
Cn1c(=O)[nH]c(=O)c2ncn(CC(=O)c3ccccc3)c21 | inconclusive: 17%
COc1ccc(C2SCCN2S(=O)(=O)c2ccc(Cl)cc2)cc1 (stereo unspecified) | inactive
O=C(NCCSc1c[nH]c2ccccc12)c1cc(Cl)ccc1Cl | inactive
COc1cc2c(cc1OC)C(CC#N)=NC(C)(C)C2 | inconclusive: 14%
CC(=O)N1c2ccccc2NC2=C(C(=O)CCC2)C1c1ccc(Cl)c(Cl)c1 (stereo unspecified) | inactive
c1ccc(CN2CCSCC2)cc1 | inactive
COCCC(=O)N1C[C@@H]2C[C@H](C1)c1ccc(-c3ccccc3CN3CCOCC3)c(=O)n1C2 | inconclusive: 12%
O=C1CCC2(CCN1)CCN(C(=O)C/C=C/c1ccccc1)CC2 | inconclusive: 10%
CCN1CCN(Cc2ccc(N(CC)CC)cc2)CC1 | active: 58%
O=C(c1ccc([N+](=O)[O-])cc1)N1CCSC1c1ccccc1Cl (stereo unspecified) | inconclusive: 12%
O=c1[nH]c2ccc(N=Cc3cc(Br)cc(Br)c3O)cc2[nH]1 | inactive
Cc1ccccc1CSC1=NCCN1C(=O)c1ccc(OC(C)C)cc1 | inconclusive: 10%
Cc1ccc2nc(C)c(C(=O)N(C)Cc3nc(CC(C)C)no3)cc2c1 | inconclusive: 12%
O=C(C[C@@H]1CCNC[C@@H]1Cc1cc(-c2ccccc2)on1)N1CCOCC1 | inconclusive: 16%
COCCOC(=O)C1=C(N)OC2=C(C(=O)CC(C)(C)C2)C1c1ccccc1F (stereo unspecified) | inconclusive: 13%
CCN1C(=O)N(Cc2cccc3ccccc23)C(=O)C12CCN(Cc1ccc(SC)cc1)CC2 | inconclusive: 19%
CCOc1ccccc1CN(CC)C(=O)c1occc1C | inconclusive: 14%
COc1ccc(NC(=O)O[C@@H]2C=C[C@H](c3c(C)nn(-c4ccccc4C)c3C)C2)cc1 | inconclusive: 21%

SMILES | inhibition
CCCCN(Cc1ccccc1)C(=O)c1cc2c(=O)n3cccc(C)c3nc2n1C | inconclusive: 11%
CC(C)Cc1cc(C(=O)NCc2ccco2)no1 | inconclusive: 20%
O=C(/C=C/c1ccc([N+](=O)[O-])cc1)Nc1cc2cccc([N+](=O)[O-])c2oc1=O | inconclusive: 22%
Cn1c(CC2CCNCC2)nnc1CN1CCCCC1c1cccnc1 (stereo unspecified) | inconclusive: 11%
O=C(Nc1cccc(OCc2cc(=O)n3cc(Cl)ccc3n2)c1)c1ccccc1 | inactive
O=C(CCC1CCN(C(=O)C2CC23CCC3)CC1)NCc1cccc(C(F)(F)F)c1 (stereo unspecified) | inconclusive: 28%
C#CCN(C)C1CCN(C(C)=O)CC1 | inactive
Cc1cc(C)c2c(N)c(C(=O)Nc3ccc(Cl)cc3)sc2n1 | inconclusive: 13%
Cc1nn(Cc2ccc(Cl)cc2)c(C)c1NC(=O)CSc1n[nH]c(C)c1[N+](=O)[O-] | inconclusive: 11%
CN(C)c1ccc(/C=C2\N=C(c3ccccc3)OC2=O)cc1Br | active: 41%
CCc1nc(C)ccc1OCC(=O)N1CCC(O)(CN(C)C)C1 (stereo unspecified) | inactive
NC(C(=O)O)c1ccc(CCCC(=O)O)s1 (stereo unspecified) | inconclusive: 11%
COC(=O)C(C)Oc1cc(C)cc2oc(=O)cc(-c3ccccc3)c12 (stereo unspecified) | inconclusive: 27%
Cn1c(=N)n(CC(O)c2cccc3ccccc23)c2ccccc21 (stereo unspecified) | inconclusive: 10%
O=C(Cc1ccc(Cl)cc1)Nc1ccccc1NC(=O)Cc1ccc(Cl)cc1 | inconclusive: 10%
O=C(Nc1nnc(CCS(=O)(=O)c2ccc(Cl)cc2)s1)c1ccc(Cl)cc1 | inconclusive: 10%
CCOC(=O)C1(NC(=O)c2cnc(CC)nc2)CCC1 | inconclusive: 11%
O=C(c1ccc(Cl)cc1)N(c1ccc(F)cc1)C1C=CS(=O)(=O)C1 (stereo unspecified) | inactive
CC(C)(C)c1nnc2n(c1=O)N=C(c1cccc([N+](=O)[O-])c1)CS2 | inactive
CC1(c2ccccc2)CC(C)(C)N(C(=O)CN2C(=O)C3CCCCC3C2=O)c2ccccc21 (stereo unspecified) | inconclusive: 14%
O=C(NC1CCCCC1)O[C@@H]1CO[C@H]2[C@@H]1OC[C@@H]2NC(=S)Nc1ccccc1 | inconclusive: 26%
CN1CC2(CCCN(c3nccc(C(F)(F)F)n3)CC2)OC1=O (stereo unspecified) | inconclusive: 15%
Cc1cccc(OCC(=O)Nc2cccc(NC(=O)c3ccccc3Cl)c2)c1C | inconclusive: 17%
CCOCC1CCN(S(=O)(=O)c2sc3c(c2C(=O)O)CCNC3)CC1 | inactive

An excerpt from above in order of SMILES length, rising.
SMILES | inhibition
NC(C(=O)O)c1ccc(CCCC(=O)O)s1 (stereo unspecified) | inconclusive: 11%
CCOC(=O)C1(NC(=O)c2cnc(CC)nc2)CCC1 | inconclusive: 11%
O=C(Nc1nnc(CCS(=O)(=O)c2ccc(Cl)cc2)s1)c1ccc(Cl)cc1 | inconclusive: 10%
CC1(c2ccccc2)CC(C)(C)N(C(=O)CN2C(=O)C3CCCCC3C2=O)c2ccccc21 (stereo unspecified) | inconclusive: 14%
